The list shows only some results of the screen, not a fair sample: it gathers tests that were run many times, whatever their T/C, doses with no T/C, and many T/C values between a quarter and a half above the control. Other doses and runs of a compound stand elsewhere. T/C gives the treated animals as a percentage of the vehicle group. Some entries give survivors of the animals treated and no T/C: the source holds a T/C of zero for them, seemingly a mark for toxic or unscored doses. Some doses without a T/C left all or most animals alive at the check, yet need not have been tolerated: survival well below the control is almost never listed, so the zero probably covers shortened survival too. Counts of survivors are from the toxicity check (mostly the fifth day) where no day follows; animals may have died later. Schedules are NCI's codes, taken here to give the interval after Q, in days (D) or hours (H), and the number of doses after X. For survival time, this PubChem deposit counts one and a half times the control or more as active, and values a quarter to a half above the control carry no call in these data; other NCI protocols may use other cut-offs. Some doses were run more than once; the results are listed from low to high.
System: BDF1 mice, B16 melanoma ip, median survival T/C
Assay: NCI In Vivo Anticancer Drug Screen. Data for tumor model B16 Melanoma (intraperitoneal) in B6D2F1 (BDF1) mice
Conditions: T/C endpoint: median survival time, higher T/C = longer survival
Procedure, shortened: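 Vehicle-treated animals serve as the reference (C); treated animals (T) are scored for survival or tumor size after tumor transplantation.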

[1] = dose: 100.0 mg/kg/injection, schedule: Q01DX009 (ip), vehicle: saline
[2] = dose: 200.0 mg/kg/injection, schedule: Q01DX009 (ip), vehicle: saline
[3] = dose: 400.0 mg/kg/injection, schedule: Q01DX009 (ip), vehicle: saline
[4] = dose: 64.0 mg/kg/injection, schedule: Q01DX009 (ip), vehicle: saline with Tween-80
[5] = dose: 50.0 mg/kg/injection, schedule: Q01DX009 (ip), vehicle: Klucel (hydroxypropylcellulose) (HPC)
[6] = dose: 100.0 mg/kg/injection, schedule: Q01DX009 (ip), vehicle: Klucel (hydroxypropylcellulose) (HPC)
[7] = dose: 200.0 mg/kg/injection, schedule: Q01DX009 (ip), vehicle: Klucel (hydroxypropylcellulose) (HPC)
[8] = dose: 400.0 mg/kg/injection, schedule: Q01DX009 (ip), vehicle: Klucel (hydroxypropylcellulose) (HPC)
[9] = dose: 6.25 mg/kg/injection, schedule: Q01DX009 (ip), vehicle: saline with Tween-80
[10] = dose: 50.0 mg/kg/injection, schedule: Q01DX009 (ip), vehicle: saline with Tween-80
[11] = dose: 100.0 mg/kg/injection, schedule: Q04DX003 (ip), vehicle: saline with Tween-80
[12] = dose: 400.0 mg/kg/injection, schedule: Q01DX009 (ip), vehicle: saline with Tween-80
[13] = dose: 50.0 mg/kg/injection, schedule: Q01DX009 (ip), vehicle: saline
[14] = dose: 12.5 mg/kg/injection, schedule: Q01DX009 (ip), vehicle: saline with Tween-80
[15] = dose: 25.0 mg/kg/injection, schedule: Q01DX009 (ip), vehicle: saline with Tween-80
[16] = dose: 50.0 mg/kg/injection, schedule: Q04DX003 (ip), vehicle: water
[17] = dose: 200.0 mg/kg/injection, schedule: Q04DX003 (ip), vehicle: water

Structure (SMILES): CCc1nc(N)nc(N)c1-c1ccc(Cl)cc1
- survivor count (dose: 4.0 mg/kg/injection, schedule: Q06HX012 (ip), vehicle: Klucel (hydroxypropylcellulose) (HPC)): 9 of 10
- survivor count (dose: 32.0 mg/kg/injection, schedule: Q06HX004 (ip), vehicle: Klucel (hydroxypropylcellulose) (HPC)): 3 of 10
- survivor count (dose: 32.0 mg/kg/injection, schedule: Q06HX012 (ip), vehicle: Klucel (hydroxypropylcellulose) (HPC)): 6 of 10
- survivor count (dose: 64.0 mg/kg/injection, schedule: Q01DX001 (ip), vehicle: Klucel (hydroxypropylcellulose) (HPC)): 9 of 10
- survivor count (dose: 64.0 mg/kg/injection, schedule: Q01DX001 (oral), vehicle: Klucel (hydroxypropylcellulose) (HPC)): 6 of 10
- survivor count (dose: 64.0 mg/kg/injection, schedule: Q01DX009 (ip), vehicle: Klucel (hydroxypropylcellulose) (HPC)): 7 of 10
- survivor count (dose: 64.0 mg/kg/injection, schedule: Q01DX009 (oral), vehicle: Klucel (hydroxypropylcellulose) (HPC)): 6 of 10
- survivor count [1]: 0 of 6
- survivor count (dose: 128.0 mg/kg/injection, schedule: Q01DX001 (ip), vehicle: Klucel (hydroxypropylcellulose) (HPC)): 0 of 10
- survivor count (dose: 128.0 mg/kg/injection, schedule: Q01DX001 (oral), vehicle: Klucel (hydroxypropylcellulose) (HPC)): 1 of 10
- survivor count (dose: 128.0 mg/kg/injection, schedule: Q04DX003 (ip), vehicle: Klucel (hydroxypropylcellulose) (HPC)): 2 of 10
- survivor count (dose: 128.0 mg/kg/injection, schedule: Q08DX002 (ip), vehicle: Klucel (hydroxypropylcellulose) (HPC)): 0 of 10
- survivor count [2]: 0 of 6
- survivor count [3]: 0 of 6

Structure (SMILES): C1OC1CN1CCN(CC2CO2)CC1 (centres undefined)
- T/C (dose: 32.0 mg/kg/injection, schedule: Q01DX009 (ip), vehicle: saline with Tween-80): 135 % of control
- survivor count [4]: 6 of 6
- survivor count (dose: 128.0 mg/kg/injection, schedule: Q01DX009 (ip), vehicle: saline with Tween-80): 6 of 6

Structure (SMILES): CN(C)CCCN1c2ccccc2CCc2ccc(Cl)cc21
- T/C (dose: 3.12 mg/kg/injection, schedule: Q01DX009 (ip), vehicle: saline): 127 % of control
- survivor count [1]: 5 of 10
- survivor count [2]: 0 of 10
- survivor count [3]: 0 of 10

Structure (SMILES): O=c1oc2c3ccccc3c3ccccc3c2o1
- survivor count [5]: 10 of 10
- survivor count [6]: 9 of 10
- survivor count [7]: 0 of 10
- survivor count [8]: 0 of 10

Structure (SMILES): NC(N)=Nc1ccc(C(=O)Oc2ccc([N+](=O)[O-])cc2[N+](=O)[O-])cc1
- survivor count [6]: 10 of 10

Structure (SMILES): CCN(CCP(c1ccccc1)c1ccccc1)CCP(c1ccccc1)c1ccccc1
- survivor count [9]: 10 of 10
- survivor count [10]: 10 of 10
- survivor count [11]: 10 of 10

Structure (SMILES): O=C(Nc1ccccc1C(F)(F)F)c1ccc(C(=O)Nc2ccccc2C(F)(F)F)cc1
- survivor count (dose: 100.0 mg/kg/injection, schedule: Q01DX009 (ip), vehicle: saline with Tween-80): 10 of 10
- survivor count (dose: 200.0 mg/kg/injection, schedule: Q01DX009 (ip), vehicle: saline with Tween-80): 10 of 10
- survivor count [12]: 7 of 10

Structure (SMILES): Nc1cc(Cl)c2cccnc2c1O
- T/C [13]: 127 % of control
- survivor count (dose: 75.0 mg/kg/injection, schedule: Q01DX009 (ip), vehicle: saline): 8 of 10
- survivor count (dose: 150.0 mg/kg/injection, schedule: Q04DX003 (ip), vehicle: saline): 4 of 10

Structure (SMILES): COc1cc(NCc2ccc3nc(N)nc(N)c3c2C)cc(OC)c1OC
- T/C (dose: 5.0 mg/kg/injection, schedule: Q01DX009 (ip), vehicle: sodium bicarbonate): 133 % of control
- T/C (dose: 10.0 mg/kg/injection, schedule: Q01DX009 (ip), vehicle: sodium bicarbonate): 128 % of control
- survivor count (dose: 40.0 mg/kg/injection, schedule: Q01DX009 (ip), vehicle: sodium bicarbonate): 10 of 10

Structure (SMILES): Clc1ccc2nc(CBr)cnc2c1
- survivor count [14]: 6 of 6
- survivor count [15]: 6 of 6
- survivor count [10]: 4 of 6

Structure (SMILES): C=C1C(=O)OC2CC1C(OC(C)=O)CC1(C)OC1CCC1(C)OC1CCC2(C)O (centres undefined)
- survivor count [6]: 7 of 10

Structure (SMILES): O=C1NC(C2CCC3CN32)C(=O)NC1C1CCC2CN21 (centres undefined)
- T/C (dose: 0.8 mg/kg/injection, schedule: Q01DX009 (ip), vehicle: saline): 126 % of control

Structure (SMILES): O=C1C(=O)C(Cl)=C(Cl)C(Cl)=C1Cl
- survivor count [9]: 6 of 6
- survivor count [14]: 6 of 6
- survivor count [15]: 6 of 6

Structure (SMILES): COc1cc2cc[n+](C)c(Cc3ccccc3)c2cc1OC
- survivor count [5]: 3 of 10

Structure (SMILES): O=[N+]([O-])/C=C/c1ccc2ccccc2c1
- survivor count [7]: 8 of 10
- survivor count [8]: 0 of 10

Structure (SMILES): Cc1c2cnccc2c(C)c2c1c1ccccc1n2CC1CO1 (centres undefined)
- survivor count (dose: 30.0 mg/kg/injection, schedule: Q01DX009 (ip), vehicle: Klucel (hydroxypropylcellulose) (HPC)): 10 of 10

Structure (SMILES): N=C(N)NC(=N)Nc1ccc(NC(=O)Nc2ccc(Nc3c4ccccc4nc4cc([N+](=O)[O-])ccc34)cc2)cc1
- survivor count (dose: 12.5 mg/kg/injection, schedule: Q04DX003 (ip), vehicle: water): 10 of 10
- survivor count (dose: 25.0 mg/kg/injection, schedule: Q01DX009 (ip), vehicle: water): 10 of 10
- survivor count (dose: 25.0 mg/kg/injection, schedule: Q04DX003 (ip), vehicle: water): 10 of 10
- survivor count [16]: 10 of 10
- survivor count (dose: 100.0 mg/kg/injection, schedule: Q04DX003 (ip), vehicle: water): 9 of 10
- survivor count [17]: 8 of 10

Structure (SMILES): O=C(O)C1C2CC(O)C(C2)C1C(=O)O (centres undefined)
- survivor count (dose: 400.0 mg/kg/injection, schedule: Q04DX003 (ip), vehicle: saline): 10 of 10

Structure (SMILES): c1ccc2c(c1)ccc1c[n+]3ccccc3cc12
- survivor count (dose: 2.0 mg/kg/injection, schedule: Q01DX009 (ip), vehicle: saline): 6 of 6

Structure (SMILES): C[C@@H](CN1CC(=O)NC(=O)C1)N1CC(=O)NC(=O)C1
- T/C (dose: 32.0 mg/kg/injection, schedule: Q01DX009 (ip), vehicle: water): 131 % of control
- T/C [16]: 130 % of control
- survivor count [4]: 10 of 10
- T/C (dose: 64.0 mg/kg/injection, schedule: Q01DX009 (ip), vehicle: water): 133 and 142 % of control
- T/C (dose: 128.0 mg/kg/injection, schedule: Q01DX009 (ip), vehicle: water): 133 % of control
- T/C [17]: 127 % of control
- T/C (dose: 256.0 mg/kg/injection, schedule: Q01DX009 (ip), vehicle: water): 142 % of control
- T/C (dose: 400.0 mg/kg/injection, schedule: Q04DX003 (ip), vehicle: water): 130 % of control
- survivor count (dose: 512.0 mg/kg/injection, schedule: Q01DX009 (ip), vehicle: water): 10 of 10
- T/C (dose: 800.0 mg/kg/injection, schedule: Q04DX003 (ip), vehicle: water): 132 % of control

Structure (SMILES): C[N+](C)(C)C.N=C=O.N=C=O.N=C=O.N=C=O.[Co+2]
- survivor count [11]: 1 of 10
- survivor count (dose: 200.0 mg/kg/injection, schedule: Q04DX003 (ip), vehicle: saline with Tween-80): 1 of 10
- survivor count (dose: 400.0 mg/kg/injection, schedule: Q04DX003 (ip), vehicle: saline with Tween-80): 0 of 10

Structure (SMILES): NNC(=O)c1ccccc1
- survivor count [1]: 8 of 10

Structure (SMILES): O=[N+]([O-])c1ccc2c(N=Nc3c(O)ccc4ccccc34)c(O)cc(S(=O)(=O)O)c2c1
- survivor count [12]: 10 of 10

Structure (SMILES): CNc1nc2c(N)ncnc2n1C1OC(CO)C(O)C1O (centres undefined)
- survivor count [13]: 5 of 10

Reference: PubChem BioAssay AID192 (DTP/NCI, 2004)
